# Source: PubChem BioAssay (NCATS)
# By UniProt entry, the sequences of proteins in these tests, tags left out. Where a name states a change or a piece, a line headed by the entry shows the natural chain unless it says otherwise.
# UniProt P50135: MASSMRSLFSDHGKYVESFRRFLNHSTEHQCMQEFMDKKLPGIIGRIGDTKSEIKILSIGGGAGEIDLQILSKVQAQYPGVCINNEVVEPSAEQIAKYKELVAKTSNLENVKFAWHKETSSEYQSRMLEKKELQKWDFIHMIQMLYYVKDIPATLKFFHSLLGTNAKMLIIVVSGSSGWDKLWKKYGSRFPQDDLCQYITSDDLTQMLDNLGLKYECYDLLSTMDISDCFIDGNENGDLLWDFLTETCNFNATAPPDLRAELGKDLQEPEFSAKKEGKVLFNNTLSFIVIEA
# Values joined by “and” are separate entries in the source; they are usually repeats but may differ in a detail not shown here. Identical values can stand only once. Some of the results follow. The main result of the screen is listed elsewhere. These columns were measured beside it and carry no call. Compounds called inactive in the main read-out are mostly missing here. For some of these results: Potencies come from curve fits of mixed quality, noted in brackets.
# Legend:
# [1] = qHTS Assay for Inhibitors of PDE-IV (AID 607); conditions: HEK293 ACTOne CNG channel cells, membrane potential fluorescence; measured here: parental cell counter-screen
# Summary of the method: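 The readout is membrane depolarisation from a cAMP-sensing CNG channel, detected with a potential dye at ex 535/em 590. Cells were HEK293-derived (endogenous PDE-IV) at 1000 cells/well, titrated up to 22.9 uM final.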
# [2] = qHTS Assay for Lipid Storage Modulators (AID 1519); conditions: Drosophila S3 cells, BODIPY lipid droplet/cell ratio, laser cytometry, cells loaded with oleic acid
# Summary of the method: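 Cells seeded at 5,000 per well were treated with compounds over a concentration series and loaded with oleic acid (400 uM, as added). Lipid droplet fluorescence (488 nm excitation, 500-530 nm channel) was read by laser-scanning cytometry and normalized to 20 uM Triacsin C.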
# [3] = A High-Content qHTS Against Drug Library for the Identification of Small Molecules that Inhibit DYT1 Early Onset Primary Dystonia-Associated Cell Pathology (AID 1645839); conditions: HEK293 Flp-In EGFP-delE TorsinA, punctate imaging, 48 h; measured here: cell count cytotoxicity
# Summary of the method: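 In this high-content image screen, delE TorsinA mislocalization in inducible Flp-In 293 cells is scored as %pathology, with cell count serving as the counterscreen. Compound exposure lasts 48 h under tetracycline induction in reduced-serum medium.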
# [4] = qHTS assay for small molecule antagonists of androgen receptor signaling (AID 588516); conditions: AR-UAS-bla HEK293, beta-lactamase ratio, antagonist mode, 16 h
# Summary of the method: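 Cells were plated and incubated 5 h, compounds added in titration, then R1881 (10 nM final) as agonist. After 16 h at 37 C, CCF4 substrate was loaded for 2 h at room temperature and fluorescence measured.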
# [5] = qHTS assay for small molecule antagonists of peroxisome proliferator-activated receptor delta signaling (AID 588535); conditions: HEK293T PPARd-UAS-bla, beta-lactamase FRET ratio, 18 h; 460 nm channel;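 also: cells co-treated with a PPAR-delta agonist as stimulator during compound exposure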
# Summary of the method: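 Cell-based beta-lactamase assay in antagonist mode: 4000 HEK293T PPAR-delta-UAS-bla cells per well, 5 hr preincubation then 18 hr compound incubation at 37 C. IC50 obtained by Hill equation fitting.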
# [6] = qHTS assay for small molecule antagonists of peroxisome proliferator-activated receptor gamma signaling (AID 588537); conditions: HEK293 PPARg-UAS-bla, beta-lactamase ratio, antagonist mode; measured here: W460 blue channel
# Summary of the method: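 Inhibitors of agonist-stimulated UAS-bla reporter activity were sought in HEK293 cells; rosiglitazone (50 nM) defined full signal and DMSO baseline. Curves fitted to Hill model gave IC50 and efficacy.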
# [7] = qHTS assay for small molecule antagonists of vitamin D receptor signaling (AID 588541); conditions: HEK293T VDR-UAS-bla, beta-lactamase ratio, antagonist mode; measured here: W460 blue channel (cell viability)
# [8] = qHTS assay for small molecule agonists of retinoid X receptor alpha signaling (AID 588544); conditions: HEK293T RXRa-UAS-bla, beta-lactamase reporter, 18 h; 530 nm emission
# [9] = qHTS assay for small molecule antagonists of retinoid X receptor alpha signaling (AID 588546); conditions: HEK293T RXRa-UAS-bla, beta-lactamase ratio, antagonist mode; measured here: W530 green channel, cytotoxicity proxy;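 also: cells stimulated with 9-cis-retinoic acid as agonist; % is scaled to controls: 0 for no effect and ±100 for the full control effect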
# Summary of the method: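 Beta-lactamase reporter inhibition, read as CCF4 fluorescence ratio (ex 405, em 460/530 nm) after 2 h at RT. HEK293T UAS-bla cells, 2500/well, were stimulated with 9-cis-RA at 500 or 100 nM final alongside test compound for 18 h at 37 C.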
# [10] = S16 Schwann cell PMP22 intronic element beta-lactamase assay (AID 624044); conditions: S16 rat Schwann cells, PMP22 element beta-lactamase FRET, 24 h
# Summary of the method: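 Rat S16 Schwann cells with beta-Lac driven by a PMP22 intronic element, compound-treated 24 h at 37 °C. LiveBLAzer FRET B/G read: 460 nm normalized to potassium clavulanate vs DMSO; 535 nm FRET as viability; concentration-effect curves classified.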
# [11] = qHTS Assay for Modulators of Human Peripheral Myelin Protein 22 (PMP22) Expression/Activity (AID 1967); conditions: Cell-based PMP22 reporter, dual-color luciferase ratio
# Summary of the method: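 Engineered MSC80 cells, Pmp22-promoter green and EF-alpha red luciferase reporters; 24h compound treatment at 37 °C. Concentration-response fits on green, red and ratio signals, each overlap-corrected, with %Activity normalized to untreated wells.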
# [12] = qHTS for identification of novel therapeutic agents for treatment of microphthalmiaassociated transcription factor (MiT) renal cell carcinoma (RCC) (AID 1963991); conditions: CellTiter-Glo, 48 h, stronger effect = lower value;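 also: curves scaled with 100% = DMSO viability and 0% = empty wells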
# Summary of the method: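 UOK109/UOK124/UOK145 (TFE3 fusions, three partners); 500 cells/well; MIPE v4.0, 1912 cpds, 11 conc.; 48 h, 37 C; CellTiter-Glo, 15 min RT; lum. Norm.: DMSO 100%, empty 0%.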
# [13] = molecular target: Histamine N-methyltransferase (Homo sapiens) (UniProt P50135); experiment: Confirmatory Screen for Target Class Profiling of Small Molecule Inhibitors of Methyltransferases (AID 1745852); conditions: MTase-Glo luminescence, SAH detection, recombinant enzyme; measured here: HNMT inhibition potency
# [14] = measured here: cell count channel max response
# [15] = measured here: cell number channel AC50
# [16] = measured here: lipid (BODIPY) channel AC50
# [17] = measured here: lipid channel max response
# [18] = measured here: 460 nm blue channel
# [19] = measured here: 530 nm viability channel
# [20] = measured here: red reporter channel AC50, EF-alpha promoter control reporter in MSC80 mouse Schwann cells
compound,measurement,setting,value
O=C1NCN(c2ccccc2)C12CCN(CCCOc1ccc(F)cc1)CC2,AC50,[1],"5.01 µM [rising, partial curve]"
same,max response,[2]; [14],31.5%
same,AC50,[2]; [15],"39.8 µM [rising, single point]"
same,AC50,[2]; [16],"14.1 µM [rising, single point]"
same,max response,[2]; [17],35.8%
same,AC50,[3],"7.08 µM [falling, partial curve, poor fit]"
CN(C)C(=S)SSC(=S)N(C)C,max response,[2]; [14],-39.3%
same,AC50,[2]; [15],"35.5 µM [falling, single point]"
same,AC50,[2]; [16],"31.6 µM [falling, single point]"
same,max response,[2]; [17],-78.3%
same,AC50,[4]; measured here: W460 blue channel fit,"44.7 µM [falling, partial curve, poor fit] and 708 nM [falling, full curve]"
same,AC50,"[4]; measured here: W530 green channel, cytotoxicity/artifact","891 nM [rising, full curve, poor fit] and 22.4 µM [rising, single point]"
same,max response,[5],-0.631%
same,AC50,[6],"31.6 µM [falling, partial curve, poor fit]"
same,AC50,[7],"39.8 µM [falling, partial curve, poor fit] and 44.7 µM [falling, partial curve, poor fit]"
same,max response,[8],57.5% and 24.5%
same,max response,[9],47.2%
same,AC50,[10]; [18],"25.1 µM [falling, partial curve, poor fit]"
same,AC50,[10]; [19],"22.4 µM [rising, partial curve]"
same,AC50,[3],"35.5 µM [falling, single point]"
Nc1nc2ccc(Cl)cc2c2nc(-c3ccco3)nn12,max response,[2]; [14],52.1% and -74.7%
same,AC50,[2]; [15],"5.62 µM [rising, full curve, poor fit] and 50.1 nM [falling, full curve, poor fit]"
same,AC50,[2]; [16],"6.31 µM [rising, full curve, poor fit] and 6.31 µM [falling, full curve, poor fit]"
same,max response,[2]; [17],69.1% and -75%
same,AC50,[11]; [20],"37.9 µM [rising, single point]"
COC1(CS(=O)c2ccccc2)CCN(CCc2c[nH]c3ccc(F)cc23)CC1 (stereo unspecified),max response,[2]; [14],57.3%
same,AC50,[2]; [15],"11.2 µM [rising, partial curve, poor fit]"
same,AC50,[2]; [16],"14.1 µM [rising, partial curve, poor fit]"
same,max response,[2]; [17],70.7%
same,z-score,"[12]; TFE3-RCC UOK109 viability, measured here: UOK109 Z-AUC",0.205
same,z-score,"[12]; TFE3-RCC viability, measured here: UOK124 Z-AUC",0.361
same,z-score,"[12]; TFE3-RCC viability, measured here: UOK145 Z-AUC",0.0417
NCCc1ccc(O)cc1,max response,[2]; [14],16.5% and -21.7%
same,AC50,[2]; [15],"14.1 µM [falling, partial curve, poor fit]"
same,AC50,[2]; [16],"39.8 µM [rising, single point] and 14.1 µM [falling, partial curve, poor fit]"
same,max response,[2]; [17],31.6% and -22.8%
same,AC50,[6],"50.1 µM [rising, single point]"
same,IC50,[13],"0.485 µM [falling, full curve]"
NC(=NCCC[C@H](N)C(=O)O)N[N+](=O)[O-],max response,[2]; [14],-6.75%
same,AC50,[2]; [15],"3.16 µM [falling, full curve, poor fit]"
same,AC50,[2]; [16],"3.16 µM [falling, full curve, poor fit]"
same,max response,[2]; [17],-12.4%
same,AC50,[11]; [20],"84.9 µM [falling, single point]"
O=S1(=O)N(CCN2CC=C(c3c[nH]c4cc(F)ccc34)CC2)c2cccc3c2N1CCC3,max response,[2]; [14],-78.6%
same,AC50,[2]; [15],"25.1 µM [falling, partial curve, poor fit]"
same,AC50,[2]; [16],"25.1 µM [falling, partial curve, poor fit]"
same,max response,[2]; [17],-79.6%
same,AC50,"[11]; measured here: green reporter channel AC50, mouse Pmp22 promoter in mouse Schwann cells","60.1 µM [falling, partial curve]"
same,AC50,[11]; [20],"84.9 µM [falling, partial curve, poor fit]"
O=c1[nH]c(=O)n([C@H]2C[C@H](O)[C@@H](CO)O2)cc1/C=C/Br,max response,[2]; [14],-30.1%
same,AC50,[2]; [15],"3.55 µM [falling, full curve, poor fit]"
same,AC50,[2]; [16],"3.55 µM [falling, full curve, poor fit]"
same,max response,[2]; [17],-29.5%
same,AC50,[11]; [20],"84.9 µM [falling, partial curve]"
N[C@@H](CCl)C(=O)O,max response,[2]; [14],-45.5%
same,AC50,[2]; [15],"20 µM [falling, partial curve, poor fit]"
same,AC50,[2]; [16],"20 µM [falling, partial curve, poor fit]"
same,max response,[2]; [17],-43.7%
same,AC50,[11]; [20],"84.9 µM [falling, single point]"
CC[N+](CC)(CC)CC,max response,[2]; [14],41.7%
same,AC50,[2]; [15],"11.2 µM [falling, partial curve, poor fit]"
same,AC50,[2]; [16],"12.6 µM [falling, partial curve, poor fit]"
same,max response,[2]; [17],41.7%
same,AC50,[11]; [20],"95.3 µM [falling, single point]"
Oc1ccc2[nH]cc(CCCCN3CC=C(c4ccccc4)CC3)c2c1,max response,[2]; [14],30.7%
same,AC50,[2]; [15],"1.26 µM [rising, full curve, poor fit]"
same,AC50,[2]; [16],"39.8 µM [rising, single point]"
same,max response,[2]; [17],38.1%
same,AC50,[10]; [18],"12.6 µM [falling, full curve, poor fit]"
same,AC50,[10]; [19],"0.0631 µM [falling, full curve]"
same,AC50,[3],"8.91 µM [falling, partial curve]"
COc1cc(C(O)CN)ccc1O (stereo unspecified),max response,[2]; [14],39.2%
same,AC50,[2]; [15],"2.82 µM [falling, full curve, poor fit]"
same,AC50,[2]; [16],"2.82 µM [falling, full curve, poor fit]"
same,max response,[2]; [17],39.6%
same,AC50,[11]; [20],"84.9 µM [falling, single point]"
